We go through four sequences from PMC4666351, “A novel transcriptional regulator of L-arabinose utilization in human gut bacteria”.

For some of these results: A negative result means that nothing was seen under these conditions. For at least one entry, the source does not settle the construct or the ends of the probe. For some of these results: Weaker means in comparison with the reference protein, sequence or condition of that experiment.

Series [1] addresses BtAraR (apo) (UniProt Q8AAV8). Briefly: EMSA. The conditions noted are these: EMSA: 20 mM Tris-HCl pH 8.0, 150 mM KCl, 5 mM MgCl2, 1 mM DTT, 0.05% NP-40, 2.5% glycerol, 37 C, 30 min, DNA 0.2 nM (0.16 nM in Fig S4), protein 0.25-1 uM, recombinant protein, residues 1-225, protein details: N-terminal His6 removed by TEV, leaves SNA, label: 5'-biotin on one strand. (In EMSA bound probe runs differently from free probe, usually more slowly.)

The target of series [2] is BtAraR (apo) (UniProt Q8AAV8). Description: crystal structure. The conditions noted are these: apo protein dimer with one duplex, 3.05 A; recombinant protein; residues 1-225; protein details: N-terminal His6 removed by TEV, leaves SNA.

Regarding “CCCCCACTATAATTAACCAATTAATCTAATCCAACGGTTACATAGGAGGTACTAATATAACCCCC (double strand) [negative control, shuffled BT0356]”, in the series with BtAraR (apo) [1] (no effector, up to 1 uM protein), the binding result is reported as “no binding”.
Consider “CCCCCATATAAGAGTGTATTTGATACACCAAACAAAAGTGTTACTTTTACACCCAAAATACCCCC (double strand) [BT0356 (araM) promoter 65-bp]”, for which the binding result in the series with BtAraR (apo) [1] (0.01 mM L-arabinose, 1 uM protein) was “binds more weakly”; with BtAraR (apo) [1] (0.5 mM L-arabinose, 1 uM protein) it was “no binding”; with BtAraR (apo) [1] (0.5-2 mM D-xylose, 1 uM protein, partial impairment) it was “binds more weakly”; in the series with BtAraR (apo) [1] (no effector, shift at 1.0 uM, two shifted bands), “binds”.
For “CCCCCTACTCAAAGTGTAAAAAAGACACTTATATAACCCCC (double strand) [BT0365 promoter 41-bp]”, the binding result with BtAraR (apo) [1] (no effector, shift at 1.0 uM, one shifted band) is given as “binds”.
With “GCAAAAGTGTTACTTTTACACCCATGC (double strand) [27-bp araM operator (crystal)]”, in the series with BtAraR (apo) [2], the binding result is recorded as “binds”.
